Binding data for 2 molecules are collected here from paper PMC9436328.

Results are given in words; binding and its absence hold for the method and conditions named. For some assays here: Binding can be weak; no strength is given.

Assay [1] has as its target T1, Pi04089 (Phytophthora infestans) (UniProt D0N0I9).
T1 sequence: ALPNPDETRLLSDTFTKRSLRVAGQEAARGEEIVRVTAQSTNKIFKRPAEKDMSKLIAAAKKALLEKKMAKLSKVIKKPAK
Briefly: two-hybrid.

Assay [2] deals with HaRxL44 (Hyaloperonospora arabidopsidis). Briefly: two-hybrid.

Consider “AT5G15270, RNA binding KH domain–containing protein (Arabidopsis thaliana)”, for which the binding entry in assay [1] is listed as “no binding”.

B1: Arabidopsis mediator subunit med19a (protein, UniProt Q9FMP0 1-221)
chain: MEPERLKFGGPRELCGAADLISQFKLVQHHEFFCKKSLPVSLSDSHYLHNVVGDTEIRKGEGMQLDQLIESISQSRETNIRIQPFDIDELQESFQLNDMTPVELPPAEKGAPTIPSKSKSESKDRDRKHKKHKDRDKDKDREHKKHKHKHKDRSKDKDKDKDRDRKKDKNGHHDSGDHSKKHHDKKRKHDGDEDLNDVQRHKKNKHKSSKLDEVGAIRVAG
Take B1: the binding entry in assay [2] is “binds”.
